Reference: publication PMC10163288
The other results are listed elsewhere or left out.

B1: il10ra_site1_normal_mot_HHH_b2_00479_000000091_0001_1_12_H_._f9c37336de6f1513c893807100b70f62_0001_af2_0001_0000200004_0000001_0_af2pred_dldesign_0_af2pred (protein)
chain: SLEERLREALLKRLPEEEVERALALFRELKAETGDPLAALVALARRLAEEGKPELARVVAEVINE
B2: il10ra_site1_sap_17_mot_HHH_b2_07688_000000045_0001_1_20_H_._HHH_b2_03943_0001_0000300045_0000001_0_0001 (protein)
chain: SSSSDREQRVAELLFEALRAWVEGNPEEAKELLEEARELAEELNDEELEEYIRILEHFVKHSSSS
B3: il10ra_site1_sap_18_mot_HHH_b2_05454_000000273_0001_1_18_H_._HHH_b2_05244_0001_0000200012_0000001_1_0001 (protein)
chain: SSSSDLRREVYKLLREIVELDHEGDPEEAKKLVEEAQELIEEANDWLLRFVLEHLERIIDSSSSS
B4: il10ra_site1_normal_mot_HHH_b2_02354_af2_000000157_0001_40_56_H_._HHH_b1_03315_af2_0001_0000200024_0000002_0 (protein)
chain: SSSSEQEVSRLIEEIMRLIKEGDEEEARELLEKAKEIAEELGDENLKFILKSLELALEQLFSSSS
B5: il10ra_site1_sap_14_mot_HHH_b1_08411_af2_000000053_0001_1_20_H_._HHH_b1_08108_0001_0000200028_0000001_0_0001 (protein)
chain: SSSSSSDEYREAYELIEEAFHIEDEEEARELLEEAKELAERAGNWALRFAIQLLLEDLSSSSSSS
B6: il10ra_site1_sap_27_mot_HHH_b1_02492_000000051_0001_1_21_H_._HHH_b1_05859_0001_0000300036_0000001_0_0001 (protein)
chain: SSSSDLEELYELSRRAAELDSEGNPEEAQEVLEEAERIAEEAGDRLFLLQLRFLLKMIRGSSSSS
B7: il10ra_site1_sap_17_mot_e1dd4851c59bc1cdde016f988f6856bd_0001_1_000000200_0001_16_31_H_._HHH_b1_07157_0001_0000100004_0000001_1_0001 (protein)
chain: DEEKEEELIELIAEALGVPPEVVELALERQREQAGDPRQALEAIAASAWLSAPPELQKKLEEALK
B8: il10ra_site1_normal_mot_HHH_b2_06857_af2_000000179_0001_42_54_H_._HHH_b2_04986_af2_0001_0000100001_0000001_0 (protein)
chain: SSSSTEAMRELYELLRRLAEAAHNGDEERVEEIAEEAERIAKELGNELTLFQIRFALRTVLSSSS
B9: il10ra_site1_sap_20_mot_HHH_b2_05797_000000294_0001_1_19_H_._HHH_b1_03030_0001_0000300027_0000001_0_0001 (protein)
chain: SSSSDEVSRRVMELLEEALELDQNGDREEAEELAREAEELAQEANNPQLLRAVEYLLRSINSSSS
B10: il10ra_site1_normal_mot_HHH_b2_00345_af2_000000013_0001_42_56_H_._HHH_b2_01857_0001_0000100002_0000002_0 (protein)
chain: SSSSSDEEEEEVEELLEEAKHIEDHEKRLEILLEATHLALRAQDPELVQLVWEVFRRLIESSSSS
B11: il10ra_site1_normal_mot_HHH_b2_08186_000000021_0001_43_56_H_._HHH_b2_07428_af2_0001_0000500009_0000001_0 (protein)
chain: SSSSSDEEEVEELLEEAEELVKRGNPEEALELLLKALQIAFRISNAELLQKIWEVLQKLRSSSSS
B12: il10ra_site1_normal_mot_HHH_b2_00984_000000042_0001_1_20_H_._HHH_b1_07305_0001_0000100009_0000001_0 (protein)
chain: SSSSSDEEELERLLEELEELVERNDRERFLRLVQELIRLAIRLSDPEILQRLWELIRRFASSSSS
B13: il10ra_site1_sap_17_mot_HHH_b2_00076_000000055_0001_40_55_H_._HHH_b2_01555_0001_0000200016_0000002_0_0001 (protein)
chain: SSSADEVSHLLIQAYALANQIGDPELRKIVEKLAQIAAEARANNDEEKLEEVAEELEEFLKEVSS
B14: il10ra_site1_sap_12_mot_HHH_b2_05343_000000235_0001_19_35_H_._HHH_b1_05240_0001_0000400031_0000001_1_0001 (protein)
chain: SSSSSSTEELFELIEELAKLVRENDEERAEEILERIEELAKELNNRLFEIQARFLFRRLESSSSS
B15: il10ra_site1_sap_15_mot_HHH_b2_03328_af2_000000127_0001_1_19_H_._HHH_b2_03806_af2_0001_0000400012_0000001_0_0001_af2pred_dldesign_0_af2pred (protein)
chain: SSSSDPLAEIERLVAEARRLLAAGQPDEAAQLLTEAAKLAIELGRPDLAYEISRLLWESLSSSSS
B16: il10ra_site1_sap_23_mot_HHH_b2_00984_000000042_0001_1_20_H_._HHH_b2_02068_af2_0001_0000500019_0000001_0_0001 (protein)
chain: SSSSSDDEEQLKAAAVFLEAALRYGDEEAIEMMTWSLEALAERTNDEEARELVEQAKELLSSSSS
B17: il10ra_site1_normal_mot_HHH_b2_00730_000000084_0001_1_16_H_._HHH_b2_06521_0001_0000500035_0000001_0 (protein)
chain: SSSSSDEEEYLRLSLRFAEQLIENGDPEAARRILRAAFELAERLGDEELLEEVEELLRQLSSSSS
B18: il10ra_site1_normal_mot_HHH_b2_00612_000000251_0001_1_14_H_._HHH_b1_08548_0001_0000300017_0000002_0_af2pred_0001 (protein)
chain: SSSSDEEFERVRKLLEKVSELARNGNPEEAQKVAEEALEVAEEAGNELLRRAVEYLLKLVSSSSS
B19: il10ra_site1_sap_20_mot_HHH_b2_06430_000000048_0001_41_58_H_._HHH_b1_00495_af2_0001_0000900026_0000001_0_0001 (protein)
chain: SSSDTEQRVAELLFRAVELLAKGNPEEAEKLVEEAERLAEELNDPELERYVEILLRFVKAHSSSS
B20: il10ra_site1_sap_22_mot_HHH_b1_03094_000000294_0001_1_20_H_._HHH_b1_03552_af2_0001_0000400024_0000001_0_0001 (protein)
chain: SSSSDEEELVEAAARLVEQALEHGDKESARFHLWAIRLAVEELGDEELERLLEELEELIERSSSS
B21: il10ra_site1_normal_mot_HHH_b2_04646_000000019_0001_1_20_H_._HHH_b2_05789_af2_0001_0000400029_0000001_0 (protein)
chain: SSSSSDEEEAREEAERLLEEAEQIEDRHEVARLLYRASRLAAEGQDDELARRLVKLFARLSSSSS
B22: il10ra_site1_normal_mot_HHH_b2_01705_af2_000000069_0001_44_57_H_._HHH_b1_04218_af2_0001_0000400020_0000001_0 (protein)
chain: SSSSSSDSEELLEEAEELLKEIKDPEERTEVYRKFAEELVELGDREAIERLSELFIRASSSSSSS
B23: il10ra_site1_normal_mot_HHH_b1_02397_af2_000000085_0001_39_57_H_._HHH_b2_06806_af2_0001_0000200014_0000002_0 (protein)
chain: SSSSDEEKEKLEELLKELEELIEEGDQEKFARLVQEVLRLAFKLRDEEVLKAVWELMELFISSSS
B24: il10ra_site1_normal_mot_HHH_b2_04680_000000215_0001_1_16_H_._HHH_b2_01495_0001_0000300034_0000001_0 (protein)
chain: SSSSTEETREAYRLLREAFEFLQRGDPEQARELLEEAERLLEEAGNEAALFSVRLALEALDSSSS
B25: il10ra_site1_sap_16_mot_HHH_b2_01986_af2_000000130_0001_1_18_H_._HHH_b2_06750_0001_0000100006_0000001_0_0001 (protein)
chain: SSSSDEEEQELIEAAKRLARLLIRGNKEEVERLLEEVERLAEELNDERFLKILEDLKRALSSSSS
B26: il10ra_site1_sap_20_mot_HHH_b2_08004_000000101_0001_1_17_H_._HHH_b2_06414_af2_0001_0000200009_0000001_0_0001_af2pred_0001 (protein)
chain: SSSSDVREEVEELFEEAQELIEKGNPEEALKLVHRMSELAREARDKELARLVLEIAKLLNKSSSS
B27: il10ra_site1_normal_mot_HHH_b1_00999_000000080_0001_41_55_H_._HHH_b2_07269_0001_0000100005_0000001_0 (protein)
chain: SSSSDVEERVEKLLEEAEELAEEGDREEVIRLALEAVQIAFKNNNQELLQLIWEVVKELGSSSSS
B28: il10ra_site1_sap_12_mot_HHH_b1_02997_000000220_0001_39_52_H_._6901b4206402d3583e87baab01b64579_0001_1_af2_0001_0000100001_0000001_1_0001_af2pred_0001 (protein)
chain: SSSSSDREELEEEAEELMKELEREGDPKLFTRLVRLAKLLAELGNPLFEEVAKLLVELISSSSSS
B29: il10ra_site1_normal_mot_3bd581f07f1b12bbb9d960ae430c4d98_0001_000000069_0001_53_65_H_._HHH_b2_08143_0001_0000300019_0000001_0_af2pred_0001 (protein)
chain: SSSSSSEEEEIVEELVEEFGLSEEQQKALEYLAEYLKELGASEEEIEESLEVAARLLRLASSSSS
B30: il10ra_site1_normal_mot_HHH_b2_07521_000000141_0001_20_37_H_._HHH_b1_07534_0001_0000100004_0000001_1 (protein)
chain: SSSSSDEEYIELSLRFLEWLLREGDEEAARRIFRAIEDLIKSINDEELQRRLEELEEEIHSSSSS
B31: il10ra_site1_sap_22_mot_HHH_b2_02933_000000199_0001_1_19_H_._HHH_b1_02427_0001_0000400047_0000001_0_0001 (protein)
chain: SSSSNFVLRVLERVIERLIKLGNLEKAEIQAEEAIKHLRDAGDEEAVERLEELLEEIRELGSSSS
B32: il10ra_site1_sap_25_mot_39a7b8d0c4c3fc04bafbda6ce6101d3a_0001_1_af2_000000014_0001_34_48_H_._HHH_b1_07414_0001_0000400029_0000001_0_0001 (protein)
chain: SSSSSSEEREEFRRLEEELEEAKSADEWYEIAKRLIEVAAEANDPELARLVMELIREHLRSSSSS
B33: il10ra_site1_normal_mot_0cd074c2d6d3de76f1399c5a775575d2_0001_1_af2_000000000_0001_16_30_H_._HHH_b1_05697_af2_0001_0000500024_0000001_0_af2pred_0001 (protein)
chain: SSSSDEERLRELVEELVKELGLSERAQEILEISLEILLELGVDEREIERLLRILARDLAAQSSSS
B34: il10ra_site1_normal_mot_HHH_b1_03859_af2_000000004_0001_44_57_H_._HHH_b2_01252_0001_0000200002_0000001_0 (protein)
chain: SSSSSDEEEVERYVRLALRFAKRLEDERARRLLLRAAEEIAKRGNNPELEELVRKVAEELSSSSS
B35: il10ra_site1_sap_21_mot_HHH_b2_04681_000000155_0001_43_57_H_._HHH_b1_05531_0001_0000100005_0000001_0_0001_af2pred_0001 (protein)
chain: SSSSSLSERVAELLRRALEAERNGNPEEAERLLEEAKELAEENNNELIRIIIEYLERLLKRSSSS
B36: il10ra_site1_normal_mot_HHH_b1_02708_af2_000000019_0001_23_39_H_._HHH_b2_03011_0001_0000200021_0000001_1_af2pred_0001 (protein)
chain: SSSTLEERVVRLLFRALELLAKGDEEEARELIEEAEELARERNDEELLRAVEILLRLLELLSSSS
B37: il10ra_site1_sap_24_mot_HHH_b1_01879_000000050_0001_1_18_H_._HHH_b1_01254_af2_0001_0000100001_0000001_1_0001_af2pred_0001 (protein)
chain: SSSSDEEEQRALKLFIEISRALSNNDHEKAEELLEEVKELVEELNDPRLELAVRFLEALLKSSSS

Target: il10ra, Q13651
Experiment: yeast display titration

Apparent Kd, inactive:
B1 no binding seen
B2 no binding seen
B3 no binding seen
B4 no binding seen
B5 no binding seen
B6 no binding seen
B7 no binding seen
B8 no binding seen
B9 no binding seen
B10 no binding seen
B11 no binding seen
B12 no binding seen
B13 > 166 nM
B14 no binding seen
B15 no binding seen
B16 no binding seen
B17 no binding seen
B18 no binding seen
B19 no binding seen
B20 no binding seen
B21 no binding seen
B22 no binding seen
B23 no binding seen
B24 no binding seen
B25 no binding seen
B26 no binding seen
B27 no binding seen
B28 no binding seen
B29 no binding seen
B30 no binding seen
B31 no binding seen
B32 no binding seen
B33 no binding seen
B34 no binding seen
B35 no binding seen
B36 no binding seen
B37 no binding seen

Copied from the listing for reference:
Apparent Kd, inactive:
B35 no binding seen
B36 no binding seen
B37 no binding seen
